These are yes or no findings as the source states them, for the method shown. Binding seen in cells or lysates may run through a third protein. Some results given as binding are weak or reduced against the parent protein; the word gives no strength.
What was measured:
[1] = target: EP300 (P300), endogenous (human (endogenous in REH and Nalm6)) (UniProt Q09472); assay: proximity ligation; Duolink PLA on endogenous proteins, dots per nucleus, in REH cells, Nalm6 cells and BCP-ALL patients' cells; cut-off two S.D. over the negative control, Fisher's exact test
[2] = target: T1, SIN3A, endogenous (human (endogenous in REH and Nalm6)) (UniProt Q96ST3); assay: as above
T1 sequence: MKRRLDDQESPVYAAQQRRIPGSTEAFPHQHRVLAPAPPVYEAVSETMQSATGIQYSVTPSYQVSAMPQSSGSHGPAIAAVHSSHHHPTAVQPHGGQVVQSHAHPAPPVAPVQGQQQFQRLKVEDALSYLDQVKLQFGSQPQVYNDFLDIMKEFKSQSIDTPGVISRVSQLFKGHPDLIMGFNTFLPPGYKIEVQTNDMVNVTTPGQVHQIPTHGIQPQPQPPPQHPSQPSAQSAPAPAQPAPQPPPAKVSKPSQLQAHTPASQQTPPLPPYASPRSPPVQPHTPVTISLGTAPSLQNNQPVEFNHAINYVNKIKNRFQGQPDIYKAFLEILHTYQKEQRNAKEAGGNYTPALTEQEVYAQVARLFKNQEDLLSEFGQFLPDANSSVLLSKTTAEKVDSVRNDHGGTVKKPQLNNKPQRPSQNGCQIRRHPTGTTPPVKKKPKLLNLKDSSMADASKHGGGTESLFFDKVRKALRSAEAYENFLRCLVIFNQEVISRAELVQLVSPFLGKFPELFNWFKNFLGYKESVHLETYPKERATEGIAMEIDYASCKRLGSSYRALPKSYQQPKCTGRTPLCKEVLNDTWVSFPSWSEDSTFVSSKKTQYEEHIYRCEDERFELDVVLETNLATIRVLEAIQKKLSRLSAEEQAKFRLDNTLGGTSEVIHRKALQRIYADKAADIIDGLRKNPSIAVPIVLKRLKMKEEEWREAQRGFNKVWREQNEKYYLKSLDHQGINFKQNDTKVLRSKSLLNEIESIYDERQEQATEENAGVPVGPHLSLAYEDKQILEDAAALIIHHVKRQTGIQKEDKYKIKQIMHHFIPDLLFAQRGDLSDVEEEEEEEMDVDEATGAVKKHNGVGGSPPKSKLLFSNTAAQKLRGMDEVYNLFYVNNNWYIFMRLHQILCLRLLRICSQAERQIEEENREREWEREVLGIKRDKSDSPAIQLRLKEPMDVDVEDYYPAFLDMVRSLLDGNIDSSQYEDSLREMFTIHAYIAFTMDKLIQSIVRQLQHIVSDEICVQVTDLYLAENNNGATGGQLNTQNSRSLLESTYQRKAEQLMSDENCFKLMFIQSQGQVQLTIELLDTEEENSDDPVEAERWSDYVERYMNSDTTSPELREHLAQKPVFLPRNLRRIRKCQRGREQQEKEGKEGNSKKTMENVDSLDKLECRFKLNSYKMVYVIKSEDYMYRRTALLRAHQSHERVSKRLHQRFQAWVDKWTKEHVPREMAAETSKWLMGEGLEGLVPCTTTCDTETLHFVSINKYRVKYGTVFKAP

The chains behind the UniProt entries cited, without tags or fusion partners.
UniProt Q09472: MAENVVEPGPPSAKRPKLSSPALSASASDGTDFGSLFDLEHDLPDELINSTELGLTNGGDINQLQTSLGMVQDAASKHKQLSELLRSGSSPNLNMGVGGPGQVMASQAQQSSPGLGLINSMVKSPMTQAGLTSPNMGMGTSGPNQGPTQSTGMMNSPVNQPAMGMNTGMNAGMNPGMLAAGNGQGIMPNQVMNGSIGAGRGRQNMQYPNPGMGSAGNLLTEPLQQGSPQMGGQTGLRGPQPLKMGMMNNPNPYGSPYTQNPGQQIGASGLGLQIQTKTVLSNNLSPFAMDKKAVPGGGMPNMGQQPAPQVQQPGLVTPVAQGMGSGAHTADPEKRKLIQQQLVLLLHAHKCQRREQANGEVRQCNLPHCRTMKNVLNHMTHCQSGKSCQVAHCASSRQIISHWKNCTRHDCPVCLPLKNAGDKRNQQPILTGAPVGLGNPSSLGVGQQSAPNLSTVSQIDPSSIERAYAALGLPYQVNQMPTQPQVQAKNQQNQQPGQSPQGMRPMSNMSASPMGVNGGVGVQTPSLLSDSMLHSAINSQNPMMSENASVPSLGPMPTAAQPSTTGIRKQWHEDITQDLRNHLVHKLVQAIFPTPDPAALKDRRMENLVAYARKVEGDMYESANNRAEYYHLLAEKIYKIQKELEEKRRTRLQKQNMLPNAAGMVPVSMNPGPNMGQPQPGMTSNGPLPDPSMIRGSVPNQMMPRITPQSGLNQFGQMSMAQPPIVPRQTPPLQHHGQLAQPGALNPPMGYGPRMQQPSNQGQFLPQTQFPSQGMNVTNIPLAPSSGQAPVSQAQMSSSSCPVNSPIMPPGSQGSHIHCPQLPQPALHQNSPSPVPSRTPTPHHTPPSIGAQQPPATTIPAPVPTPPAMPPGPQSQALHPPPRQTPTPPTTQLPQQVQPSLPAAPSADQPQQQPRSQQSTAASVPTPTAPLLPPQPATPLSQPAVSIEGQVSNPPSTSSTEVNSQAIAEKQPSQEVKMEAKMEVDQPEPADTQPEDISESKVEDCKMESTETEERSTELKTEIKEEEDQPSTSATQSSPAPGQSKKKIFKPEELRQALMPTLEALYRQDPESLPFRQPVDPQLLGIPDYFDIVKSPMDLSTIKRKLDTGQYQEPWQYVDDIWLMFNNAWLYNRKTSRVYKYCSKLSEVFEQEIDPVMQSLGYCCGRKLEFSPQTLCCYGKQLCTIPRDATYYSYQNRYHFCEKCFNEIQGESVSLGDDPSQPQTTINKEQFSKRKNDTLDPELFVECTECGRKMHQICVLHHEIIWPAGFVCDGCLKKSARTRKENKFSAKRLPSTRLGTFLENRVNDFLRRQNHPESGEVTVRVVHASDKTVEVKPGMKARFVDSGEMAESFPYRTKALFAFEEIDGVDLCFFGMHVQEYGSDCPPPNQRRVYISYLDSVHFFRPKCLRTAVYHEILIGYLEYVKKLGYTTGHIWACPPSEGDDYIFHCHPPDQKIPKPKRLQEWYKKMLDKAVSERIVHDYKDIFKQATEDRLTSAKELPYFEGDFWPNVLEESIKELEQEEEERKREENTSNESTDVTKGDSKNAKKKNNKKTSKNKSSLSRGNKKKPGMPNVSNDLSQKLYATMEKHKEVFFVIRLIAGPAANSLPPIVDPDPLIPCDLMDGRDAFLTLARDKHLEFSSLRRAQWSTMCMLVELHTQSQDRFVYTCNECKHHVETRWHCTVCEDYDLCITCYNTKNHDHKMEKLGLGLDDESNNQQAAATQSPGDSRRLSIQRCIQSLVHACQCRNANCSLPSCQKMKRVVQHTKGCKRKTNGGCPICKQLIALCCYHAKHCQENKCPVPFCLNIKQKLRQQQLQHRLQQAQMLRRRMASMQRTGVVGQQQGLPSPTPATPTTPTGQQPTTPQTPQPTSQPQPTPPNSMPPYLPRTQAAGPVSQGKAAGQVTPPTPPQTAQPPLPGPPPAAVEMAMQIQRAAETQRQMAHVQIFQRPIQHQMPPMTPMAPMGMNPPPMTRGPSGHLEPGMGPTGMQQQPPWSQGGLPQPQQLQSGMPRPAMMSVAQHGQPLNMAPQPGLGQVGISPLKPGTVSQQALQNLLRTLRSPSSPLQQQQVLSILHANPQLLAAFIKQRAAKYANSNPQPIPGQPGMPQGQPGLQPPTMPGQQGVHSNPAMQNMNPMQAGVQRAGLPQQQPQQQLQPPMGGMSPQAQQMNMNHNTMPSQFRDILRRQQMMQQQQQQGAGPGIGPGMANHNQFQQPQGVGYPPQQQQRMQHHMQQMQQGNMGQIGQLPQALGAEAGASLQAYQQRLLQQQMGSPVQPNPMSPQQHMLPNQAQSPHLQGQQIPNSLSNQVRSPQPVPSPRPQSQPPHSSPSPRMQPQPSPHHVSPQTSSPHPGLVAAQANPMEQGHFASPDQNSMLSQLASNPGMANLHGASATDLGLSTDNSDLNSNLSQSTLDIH
UniProt Q92793: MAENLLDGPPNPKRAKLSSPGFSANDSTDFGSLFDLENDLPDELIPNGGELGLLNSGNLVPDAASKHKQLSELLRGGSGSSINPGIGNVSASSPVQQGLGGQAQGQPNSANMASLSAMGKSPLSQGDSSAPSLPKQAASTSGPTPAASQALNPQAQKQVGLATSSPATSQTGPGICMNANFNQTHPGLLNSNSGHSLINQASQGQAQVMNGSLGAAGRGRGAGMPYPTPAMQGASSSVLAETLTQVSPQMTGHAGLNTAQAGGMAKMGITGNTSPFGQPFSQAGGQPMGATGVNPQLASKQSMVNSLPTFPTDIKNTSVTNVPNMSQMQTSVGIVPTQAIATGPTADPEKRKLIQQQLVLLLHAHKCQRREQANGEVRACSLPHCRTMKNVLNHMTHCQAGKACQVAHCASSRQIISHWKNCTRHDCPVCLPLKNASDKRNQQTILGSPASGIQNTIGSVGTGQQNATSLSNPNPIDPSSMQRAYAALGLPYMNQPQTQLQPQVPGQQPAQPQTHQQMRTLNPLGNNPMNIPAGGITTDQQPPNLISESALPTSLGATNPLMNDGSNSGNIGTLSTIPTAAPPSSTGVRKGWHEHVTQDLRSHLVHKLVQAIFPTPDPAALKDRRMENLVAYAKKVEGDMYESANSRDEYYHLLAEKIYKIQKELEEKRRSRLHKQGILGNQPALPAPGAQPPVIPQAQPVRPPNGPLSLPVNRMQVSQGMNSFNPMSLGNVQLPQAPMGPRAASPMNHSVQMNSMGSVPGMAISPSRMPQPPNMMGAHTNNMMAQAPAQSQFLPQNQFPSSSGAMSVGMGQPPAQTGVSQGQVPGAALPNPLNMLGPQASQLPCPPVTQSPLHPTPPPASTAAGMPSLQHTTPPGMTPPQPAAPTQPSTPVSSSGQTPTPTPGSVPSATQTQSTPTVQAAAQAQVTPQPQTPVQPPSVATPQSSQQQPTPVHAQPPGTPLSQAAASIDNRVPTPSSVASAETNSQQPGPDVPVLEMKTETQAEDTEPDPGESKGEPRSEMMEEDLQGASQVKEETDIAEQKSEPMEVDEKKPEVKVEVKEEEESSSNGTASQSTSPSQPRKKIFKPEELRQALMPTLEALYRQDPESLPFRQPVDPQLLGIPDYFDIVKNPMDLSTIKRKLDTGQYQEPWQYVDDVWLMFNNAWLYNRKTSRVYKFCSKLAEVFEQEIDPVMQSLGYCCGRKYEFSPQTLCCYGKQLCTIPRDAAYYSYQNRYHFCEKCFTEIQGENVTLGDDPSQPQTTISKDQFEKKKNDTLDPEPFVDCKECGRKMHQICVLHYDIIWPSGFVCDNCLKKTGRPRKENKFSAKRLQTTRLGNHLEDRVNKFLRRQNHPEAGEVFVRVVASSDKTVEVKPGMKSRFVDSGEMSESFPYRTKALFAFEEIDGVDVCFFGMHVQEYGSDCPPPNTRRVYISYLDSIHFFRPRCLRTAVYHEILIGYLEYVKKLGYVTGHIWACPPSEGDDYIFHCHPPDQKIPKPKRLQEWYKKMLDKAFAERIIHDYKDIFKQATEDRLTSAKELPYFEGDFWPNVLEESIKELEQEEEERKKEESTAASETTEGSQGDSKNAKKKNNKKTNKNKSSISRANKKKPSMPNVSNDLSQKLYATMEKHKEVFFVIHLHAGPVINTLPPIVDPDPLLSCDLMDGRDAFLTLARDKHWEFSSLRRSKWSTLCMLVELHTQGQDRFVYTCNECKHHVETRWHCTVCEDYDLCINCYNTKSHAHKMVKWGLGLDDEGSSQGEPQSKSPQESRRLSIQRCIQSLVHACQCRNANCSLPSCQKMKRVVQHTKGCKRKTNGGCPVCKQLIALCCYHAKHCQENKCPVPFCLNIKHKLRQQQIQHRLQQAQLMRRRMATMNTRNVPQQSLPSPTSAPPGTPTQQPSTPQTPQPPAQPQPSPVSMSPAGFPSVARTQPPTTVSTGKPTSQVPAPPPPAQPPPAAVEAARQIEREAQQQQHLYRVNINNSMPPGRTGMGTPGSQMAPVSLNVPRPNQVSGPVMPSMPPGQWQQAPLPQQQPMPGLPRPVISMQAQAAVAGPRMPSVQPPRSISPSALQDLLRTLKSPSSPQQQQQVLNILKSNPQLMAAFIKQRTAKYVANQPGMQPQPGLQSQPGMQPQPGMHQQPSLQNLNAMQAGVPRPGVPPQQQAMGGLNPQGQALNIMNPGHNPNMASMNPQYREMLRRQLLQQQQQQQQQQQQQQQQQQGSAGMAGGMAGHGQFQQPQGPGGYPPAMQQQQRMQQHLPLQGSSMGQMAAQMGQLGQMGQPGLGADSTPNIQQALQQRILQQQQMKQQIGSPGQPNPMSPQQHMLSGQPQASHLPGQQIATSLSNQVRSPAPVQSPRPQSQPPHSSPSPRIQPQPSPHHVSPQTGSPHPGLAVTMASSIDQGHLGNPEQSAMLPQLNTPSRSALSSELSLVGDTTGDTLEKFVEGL
UniProt Q13547: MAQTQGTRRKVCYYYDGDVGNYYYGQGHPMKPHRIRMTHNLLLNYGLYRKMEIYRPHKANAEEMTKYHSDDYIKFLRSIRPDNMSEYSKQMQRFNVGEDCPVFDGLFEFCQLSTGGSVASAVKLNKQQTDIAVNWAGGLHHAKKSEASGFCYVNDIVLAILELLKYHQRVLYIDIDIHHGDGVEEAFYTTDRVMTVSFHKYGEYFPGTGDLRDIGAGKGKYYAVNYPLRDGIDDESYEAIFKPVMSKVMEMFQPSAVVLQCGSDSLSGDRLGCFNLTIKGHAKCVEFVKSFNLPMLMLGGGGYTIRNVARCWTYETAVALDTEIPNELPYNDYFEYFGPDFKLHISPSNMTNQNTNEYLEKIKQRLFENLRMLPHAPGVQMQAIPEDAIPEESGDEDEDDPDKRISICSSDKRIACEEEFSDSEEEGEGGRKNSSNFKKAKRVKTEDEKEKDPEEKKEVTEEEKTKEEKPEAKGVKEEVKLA
UniProt Q01196: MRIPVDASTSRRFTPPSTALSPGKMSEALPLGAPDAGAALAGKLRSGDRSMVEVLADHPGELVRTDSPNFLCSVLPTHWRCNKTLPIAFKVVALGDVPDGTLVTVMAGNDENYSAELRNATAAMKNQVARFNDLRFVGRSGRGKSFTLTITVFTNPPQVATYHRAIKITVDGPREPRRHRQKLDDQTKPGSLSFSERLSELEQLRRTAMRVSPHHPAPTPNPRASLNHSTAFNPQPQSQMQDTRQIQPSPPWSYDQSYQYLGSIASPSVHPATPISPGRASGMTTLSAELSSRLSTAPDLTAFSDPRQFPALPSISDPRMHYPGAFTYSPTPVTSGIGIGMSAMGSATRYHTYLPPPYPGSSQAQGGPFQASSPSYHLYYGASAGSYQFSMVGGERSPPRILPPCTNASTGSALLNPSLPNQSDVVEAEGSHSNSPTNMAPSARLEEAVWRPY

[3] = target: CREBPP (CBP), endogenous (human (endogenous in REH and Nalm6)) (UniProt Q92793); assay: as above
[4] = target: HDAC1, endogenous (human (endogenous in REH and Nalm6)) (UniProt Q13547); assay: as above
[5] = target: RUNX1 (Runt Related Transcription Factor 1), endogenous (human (endogenous in REH, Nalm6 and BCP-ALL patients' cells)) (UniProt Q01196); assay: co-IP; RUNX1 antibody (IgG as control) in REH cells, endogenous proteins; blots with RUNX1 and CBFA2T3 antibodies

binding [1]: binds
binding [2]: binds
binding [3]: binds
binding [4]: binds
binding [5]: binds
B1: CBFA2T3 (Core-Binding Factor Runt Domain Alpha Subunit 2 Translocated To 3), endogenous (protein, UniProt O75081 1-653)
chain: MPASRLRDRAASSASGSTCGSMSQTHPVLESGLLASAGCSAPRGPRKGGPAPVDRKAKASAMPDSPAEVKTQPRSTPPSMPPPPPAASQGATRPPSFTPHTHREDGPATLPHGRFHGCLKWSMVCLLMNGSSHSPTAINGAPCTPNGFSNGPATSSTASLSTQHLPPACGARQLSKLKRFLTTLQQFGSDISPEIGERVRTLVLGLVNSTLTIEEFHSKLQEATNFPLRPFVIPFLKANLPLLQRELLHCARLAKQTPAQYLAQHEQLLLDASASSPIDSSELLLEVNENGKRRTPDRTKENGSDRDPLHPEHLSKRPCTLNPAQRYSPSNGPPQPTPPPHYRLEDIAMAHHFRDAYRHPDPRELRERHRPLVVPGSRQEEVIDHKLTEREWAEEWKHLNNLLNCIMDMVEKTRRSLTVLRRCQEADREELNHWARRYSDAEDTKKGPAPAAARPRSSSAGPEGPQLDVPREFLPRTLTGYVPEDIWRKAEEAVNEVKRQAMSELQKAVSDAERKAHELITTERAKMERALAEAKRQASEDALTVINQQEDSSESCWNCGRKASETCSGCNAARYCGSFCQHRDWEKHHHVCGQSLQGPTAVVADPVPGPPEAAHSLGPSLPVGAASPSEAGSAGPSRPGSPSPPGPLDTVPR
